According to the supplement of paper PMC12819154, “High-throughput peptide-centric local stability assay extends protein–ligand identification to membrane proteins, tissues and bacteria” (Nature Structural & Molecular Biology, 2025):
The list shows a part of the results. Small differences around the control level are noise.

Amino acid sequences for entries named in this document (tags omitted). A change or cut given only in a name is not applied to a line headed by its entry.
UniProt O75346: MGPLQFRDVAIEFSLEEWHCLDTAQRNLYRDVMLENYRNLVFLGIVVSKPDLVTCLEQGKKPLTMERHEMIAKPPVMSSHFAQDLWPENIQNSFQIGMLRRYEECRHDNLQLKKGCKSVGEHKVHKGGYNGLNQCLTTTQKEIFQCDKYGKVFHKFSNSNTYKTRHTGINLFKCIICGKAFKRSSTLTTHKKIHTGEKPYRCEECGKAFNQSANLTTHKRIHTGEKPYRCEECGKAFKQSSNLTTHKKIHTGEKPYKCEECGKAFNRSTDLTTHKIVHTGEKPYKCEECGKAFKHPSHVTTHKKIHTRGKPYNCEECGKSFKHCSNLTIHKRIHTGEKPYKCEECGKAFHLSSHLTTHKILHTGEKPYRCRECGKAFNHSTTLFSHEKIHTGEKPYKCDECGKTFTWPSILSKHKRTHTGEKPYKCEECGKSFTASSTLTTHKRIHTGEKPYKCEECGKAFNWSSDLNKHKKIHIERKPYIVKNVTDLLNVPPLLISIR
UniProt O43524: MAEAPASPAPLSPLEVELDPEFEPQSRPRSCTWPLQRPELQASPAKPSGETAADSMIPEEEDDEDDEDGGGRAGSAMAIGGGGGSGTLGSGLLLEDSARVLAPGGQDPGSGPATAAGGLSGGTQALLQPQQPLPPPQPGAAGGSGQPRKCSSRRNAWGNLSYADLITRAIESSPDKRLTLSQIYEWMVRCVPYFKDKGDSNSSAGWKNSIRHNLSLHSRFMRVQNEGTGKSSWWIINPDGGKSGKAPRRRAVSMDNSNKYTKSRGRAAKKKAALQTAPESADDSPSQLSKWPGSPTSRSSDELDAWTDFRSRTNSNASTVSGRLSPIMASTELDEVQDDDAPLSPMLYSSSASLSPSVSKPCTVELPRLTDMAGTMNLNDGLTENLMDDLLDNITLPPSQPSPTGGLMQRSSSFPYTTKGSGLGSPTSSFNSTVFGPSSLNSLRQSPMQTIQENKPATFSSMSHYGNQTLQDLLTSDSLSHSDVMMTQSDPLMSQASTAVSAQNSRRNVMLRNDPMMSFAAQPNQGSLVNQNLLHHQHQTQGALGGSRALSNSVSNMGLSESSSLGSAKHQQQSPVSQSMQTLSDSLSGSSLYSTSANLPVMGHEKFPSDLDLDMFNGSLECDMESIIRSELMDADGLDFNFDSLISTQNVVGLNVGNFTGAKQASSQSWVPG
UniProt O60888: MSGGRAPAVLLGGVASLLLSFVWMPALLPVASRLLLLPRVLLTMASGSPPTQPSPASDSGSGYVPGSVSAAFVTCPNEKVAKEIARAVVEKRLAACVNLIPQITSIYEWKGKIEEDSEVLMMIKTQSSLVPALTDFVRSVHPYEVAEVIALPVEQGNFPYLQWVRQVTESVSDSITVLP
UniProt O43511: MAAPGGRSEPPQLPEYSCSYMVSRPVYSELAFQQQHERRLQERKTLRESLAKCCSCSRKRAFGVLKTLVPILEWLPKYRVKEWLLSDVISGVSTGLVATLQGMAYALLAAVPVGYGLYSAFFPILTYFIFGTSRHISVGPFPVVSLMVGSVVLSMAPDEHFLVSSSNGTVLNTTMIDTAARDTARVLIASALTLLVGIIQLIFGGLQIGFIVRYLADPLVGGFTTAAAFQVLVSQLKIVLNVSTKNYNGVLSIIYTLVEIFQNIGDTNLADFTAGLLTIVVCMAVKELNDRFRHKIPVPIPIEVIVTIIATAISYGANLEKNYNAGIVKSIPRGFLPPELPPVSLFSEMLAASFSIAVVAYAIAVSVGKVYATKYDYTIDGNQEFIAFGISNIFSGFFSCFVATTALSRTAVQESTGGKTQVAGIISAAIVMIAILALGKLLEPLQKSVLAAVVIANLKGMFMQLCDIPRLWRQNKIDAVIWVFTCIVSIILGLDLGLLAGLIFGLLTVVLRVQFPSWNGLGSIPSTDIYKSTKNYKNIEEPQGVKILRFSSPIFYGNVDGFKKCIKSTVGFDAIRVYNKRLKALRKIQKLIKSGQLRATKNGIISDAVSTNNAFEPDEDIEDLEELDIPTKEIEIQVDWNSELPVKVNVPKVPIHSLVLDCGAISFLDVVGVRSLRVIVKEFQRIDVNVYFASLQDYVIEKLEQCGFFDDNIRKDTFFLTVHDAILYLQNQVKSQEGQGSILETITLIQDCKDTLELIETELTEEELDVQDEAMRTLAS
UniProt O43151: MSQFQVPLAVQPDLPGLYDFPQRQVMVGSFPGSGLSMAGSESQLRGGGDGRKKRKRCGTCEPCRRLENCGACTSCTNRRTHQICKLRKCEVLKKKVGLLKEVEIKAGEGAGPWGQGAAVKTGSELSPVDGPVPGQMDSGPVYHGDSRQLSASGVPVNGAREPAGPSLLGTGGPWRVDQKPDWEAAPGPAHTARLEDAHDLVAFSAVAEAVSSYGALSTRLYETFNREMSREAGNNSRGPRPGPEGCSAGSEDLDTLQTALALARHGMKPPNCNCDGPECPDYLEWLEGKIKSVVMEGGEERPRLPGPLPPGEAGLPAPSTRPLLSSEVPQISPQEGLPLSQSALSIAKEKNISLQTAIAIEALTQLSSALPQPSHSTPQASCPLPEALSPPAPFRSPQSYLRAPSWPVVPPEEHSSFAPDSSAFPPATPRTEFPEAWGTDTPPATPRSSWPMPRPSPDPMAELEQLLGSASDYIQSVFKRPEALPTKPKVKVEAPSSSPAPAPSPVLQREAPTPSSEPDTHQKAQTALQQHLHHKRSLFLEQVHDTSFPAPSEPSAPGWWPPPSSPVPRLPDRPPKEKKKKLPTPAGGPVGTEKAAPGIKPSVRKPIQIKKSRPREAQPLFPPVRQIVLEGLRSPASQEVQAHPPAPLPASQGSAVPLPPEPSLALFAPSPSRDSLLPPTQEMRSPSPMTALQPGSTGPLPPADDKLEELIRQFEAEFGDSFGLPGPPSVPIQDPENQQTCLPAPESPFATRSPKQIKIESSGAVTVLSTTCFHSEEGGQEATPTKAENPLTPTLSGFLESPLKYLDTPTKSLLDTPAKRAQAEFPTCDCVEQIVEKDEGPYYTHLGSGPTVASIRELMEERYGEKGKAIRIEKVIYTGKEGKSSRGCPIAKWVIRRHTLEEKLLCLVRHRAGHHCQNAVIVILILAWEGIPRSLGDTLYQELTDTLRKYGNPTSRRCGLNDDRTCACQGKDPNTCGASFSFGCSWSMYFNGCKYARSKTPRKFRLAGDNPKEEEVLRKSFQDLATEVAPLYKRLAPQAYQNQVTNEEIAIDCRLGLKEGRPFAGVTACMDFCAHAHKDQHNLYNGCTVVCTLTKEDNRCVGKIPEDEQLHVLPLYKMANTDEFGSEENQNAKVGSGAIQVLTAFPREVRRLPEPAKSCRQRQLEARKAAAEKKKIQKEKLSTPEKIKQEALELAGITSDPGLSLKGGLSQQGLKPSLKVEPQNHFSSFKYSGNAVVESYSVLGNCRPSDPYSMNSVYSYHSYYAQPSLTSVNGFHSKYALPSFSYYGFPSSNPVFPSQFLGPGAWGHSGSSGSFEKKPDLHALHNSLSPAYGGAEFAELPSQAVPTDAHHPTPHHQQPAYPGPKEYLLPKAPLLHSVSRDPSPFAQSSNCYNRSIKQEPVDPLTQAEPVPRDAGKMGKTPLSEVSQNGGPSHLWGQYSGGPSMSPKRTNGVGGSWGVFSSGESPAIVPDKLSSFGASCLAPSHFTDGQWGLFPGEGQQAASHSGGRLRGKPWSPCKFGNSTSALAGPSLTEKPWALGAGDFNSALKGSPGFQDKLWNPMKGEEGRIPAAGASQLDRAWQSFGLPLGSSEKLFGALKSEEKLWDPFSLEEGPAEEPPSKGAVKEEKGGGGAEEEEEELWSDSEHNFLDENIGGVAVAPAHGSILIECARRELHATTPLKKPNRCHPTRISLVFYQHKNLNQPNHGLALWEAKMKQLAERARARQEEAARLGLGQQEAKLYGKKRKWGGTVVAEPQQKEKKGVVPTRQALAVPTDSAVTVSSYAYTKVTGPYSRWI
UniProt O43678, whole entry: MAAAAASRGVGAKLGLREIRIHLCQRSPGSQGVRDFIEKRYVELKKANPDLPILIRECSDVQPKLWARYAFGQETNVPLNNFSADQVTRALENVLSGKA
UniProt O60930: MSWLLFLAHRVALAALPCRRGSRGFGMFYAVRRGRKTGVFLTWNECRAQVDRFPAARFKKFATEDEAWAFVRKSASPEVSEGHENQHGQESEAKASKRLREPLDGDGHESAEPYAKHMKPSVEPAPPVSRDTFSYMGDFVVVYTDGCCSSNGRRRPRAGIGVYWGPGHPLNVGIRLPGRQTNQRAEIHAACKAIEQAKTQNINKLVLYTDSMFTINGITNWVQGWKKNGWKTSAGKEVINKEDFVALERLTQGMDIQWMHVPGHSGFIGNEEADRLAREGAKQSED
UniProt O75165, whole entry: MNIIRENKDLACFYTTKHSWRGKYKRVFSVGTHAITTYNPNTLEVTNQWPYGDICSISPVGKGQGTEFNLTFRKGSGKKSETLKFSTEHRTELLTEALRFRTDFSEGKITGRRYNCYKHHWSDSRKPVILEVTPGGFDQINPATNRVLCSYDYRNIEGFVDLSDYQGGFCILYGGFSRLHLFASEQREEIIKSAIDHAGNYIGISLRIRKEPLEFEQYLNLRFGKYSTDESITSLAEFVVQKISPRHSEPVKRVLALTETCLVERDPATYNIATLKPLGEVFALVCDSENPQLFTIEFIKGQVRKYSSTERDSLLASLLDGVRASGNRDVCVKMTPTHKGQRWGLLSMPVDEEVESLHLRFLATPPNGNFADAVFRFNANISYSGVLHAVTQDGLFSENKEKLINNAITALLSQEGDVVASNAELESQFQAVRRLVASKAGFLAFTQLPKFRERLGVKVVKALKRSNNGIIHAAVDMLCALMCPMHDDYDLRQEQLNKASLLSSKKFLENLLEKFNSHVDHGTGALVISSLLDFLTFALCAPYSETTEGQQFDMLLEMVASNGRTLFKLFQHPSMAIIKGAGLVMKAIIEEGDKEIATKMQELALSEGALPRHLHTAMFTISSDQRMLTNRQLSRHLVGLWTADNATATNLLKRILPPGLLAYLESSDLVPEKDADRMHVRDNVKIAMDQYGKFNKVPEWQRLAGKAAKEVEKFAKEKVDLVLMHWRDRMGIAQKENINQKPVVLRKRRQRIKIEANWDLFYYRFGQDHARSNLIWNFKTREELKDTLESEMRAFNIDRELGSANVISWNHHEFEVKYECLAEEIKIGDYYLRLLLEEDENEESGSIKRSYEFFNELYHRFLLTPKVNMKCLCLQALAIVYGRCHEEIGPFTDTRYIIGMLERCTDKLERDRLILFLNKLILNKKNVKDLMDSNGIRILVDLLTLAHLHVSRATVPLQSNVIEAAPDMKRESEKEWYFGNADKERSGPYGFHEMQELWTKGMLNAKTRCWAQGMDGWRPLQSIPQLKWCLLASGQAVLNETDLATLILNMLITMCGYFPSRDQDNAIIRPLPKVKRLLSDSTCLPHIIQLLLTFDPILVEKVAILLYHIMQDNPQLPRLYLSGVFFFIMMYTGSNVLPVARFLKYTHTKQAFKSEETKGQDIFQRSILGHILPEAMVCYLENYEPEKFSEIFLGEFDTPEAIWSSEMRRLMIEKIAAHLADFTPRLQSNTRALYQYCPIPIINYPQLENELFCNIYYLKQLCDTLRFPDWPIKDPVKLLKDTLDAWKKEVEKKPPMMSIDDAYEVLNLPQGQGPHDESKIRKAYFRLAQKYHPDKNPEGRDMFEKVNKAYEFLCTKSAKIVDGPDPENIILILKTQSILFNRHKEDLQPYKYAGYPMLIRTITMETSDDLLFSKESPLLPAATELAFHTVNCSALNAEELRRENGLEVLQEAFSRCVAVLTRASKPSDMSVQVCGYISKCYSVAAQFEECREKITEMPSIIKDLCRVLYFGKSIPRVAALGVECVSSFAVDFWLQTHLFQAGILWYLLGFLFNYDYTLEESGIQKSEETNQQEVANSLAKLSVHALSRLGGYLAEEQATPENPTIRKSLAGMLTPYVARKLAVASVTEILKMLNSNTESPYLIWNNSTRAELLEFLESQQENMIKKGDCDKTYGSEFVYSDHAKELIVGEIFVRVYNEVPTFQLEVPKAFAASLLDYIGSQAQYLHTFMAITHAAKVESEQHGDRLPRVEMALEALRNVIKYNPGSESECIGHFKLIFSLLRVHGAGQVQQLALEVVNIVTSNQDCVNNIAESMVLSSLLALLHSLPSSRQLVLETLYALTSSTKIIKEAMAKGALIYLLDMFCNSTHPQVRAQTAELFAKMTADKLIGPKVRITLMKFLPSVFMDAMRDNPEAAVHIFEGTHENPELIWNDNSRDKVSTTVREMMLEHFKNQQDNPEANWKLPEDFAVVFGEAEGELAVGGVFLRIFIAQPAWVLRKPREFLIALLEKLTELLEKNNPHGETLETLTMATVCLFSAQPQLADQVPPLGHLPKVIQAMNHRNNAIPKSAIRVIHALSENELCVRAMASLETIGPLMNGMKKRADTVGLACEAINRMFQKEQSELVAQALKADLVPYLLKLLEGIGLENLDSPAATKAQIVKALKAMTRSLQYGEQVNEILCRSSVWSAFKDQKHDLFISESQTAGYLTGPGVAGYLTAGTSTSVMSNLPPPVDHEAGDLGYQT

Compound: Cc1nc(Nc2ncc(C(=O)Nc3c(C)cccc3Cl)s2)cc(N2CCN(CCO)CC2)n1 [dasatinib]
Test: log2 fold change of tryptic peptide abundance, ligand vs vehicle (limited proteolysis) (log2 ratio); higher = more trypsin-susceptible (destabilized)
Details: ligand concentration: 5 uM; sample: K562 cleared lysate

| Target | log2 fold change |
| --- | --- |
| NCOR1 (peptide sequence: QDILTQESR, peptide start residue: 1357) (UniProt O75376) | 0.17 |
| UniProt O75346 (peptide sequence: EIFQCDKYGK, peptide start residue: 142) | 0.715 |
| FOXO3 (peptide sequence: AIESSPDKR, peptide start residue: 169) (UniProt O43524) | -0.139 |
| CUTA (peptide sequence: GKIEEDSEVLMMIK, peptide start residue: 111) (UniProt O60888) | 0.313 |
| UniProt O43511 (peptide sequence: KTLRESLAK, peptide start residue: 44) | 0.418 |
| UniProt O43151 (peptide sequence: GGLSQQGLKPSLK, peptide start residue: 1207) | 0.442 |
| GGCT (peptide sequence: ENGLPLEYQEK, peptide start residue: 149) (UniProt O75223) | -0.147 |
| UniProt O60861 (peptide sequence: TEEDIKK, peptide start residue: 365) | 0.0731 |
| NDUFA2 (peptide sequence: ANPDLPILIR, peptide start residue: 47) (UniProt O43678) | 0.0637 |
| RNASEH1 (peptide sequence: LREPLDGDGHESAEPYAK, peptide start residue: 99) (UniProt O60930) | 0.277 |
| DNAJC13 (peptide sequence: DMFEKVNK, peptide start residue: 1341) (UniProt O75165) | -0.597 |

Part of the list above, with tabs:
Target	log2 fold change
NCOR1 (peptide sequence: QDILTQESR, peptide start residue: 1357) (UniProt O75376)	0.17
FOXO3 (peptide sequence: AIESSPDKR, peptide start residue: 169) (UniProt O43524)	-0.139
